Laboratory results taken from patent US20260266848A1, “COMPOSITIONS AND METHODS FOR DIAGNOSING AND TREATING DYSTONIA” (Duke University, priority 2023, published 2026).

System: DYT1 patient plasma
Assay: Whole plasma metabolomics (Biocrates MxP Quant 500 Kit), DYT1 vs Healthy Controls
Settings: for Mean of DYT1-Dystonia: DYT1-Dystonia group; for Mean of Healthy Control: Healthy Control group; for LogFC / Ratio: DYT1-Dystonia vs Healthy Control
[1] = Mean of Healthy Control minus Mean of DYT1-Dystonia
[2] = human whole plasma metabolite level
[3] = Healthy Control mean minus DYT1-Dystonia mean

Row | SMILES | Difference [1] | Mean of DYT1-Dystonia [2] | Mean of Healthy Control [2] | Difference [3] | Mean of DYT1-Dystonia (human plasma metabolite level) | Mean of Healthy Control (human plasma metabolite level) | LogFC | Ratio
1 | NCCC(=O)O [beta-Ala_Biogenic Amines] | 4.684 | 5.569 | 10.25 | – | – | – | – | –
2 | C[C@H](CCC(=O)NCCS(=O)(=O)O)[C@H]1CC[C@H]2[C@@H]3[C@H](O)C[C@@H]4C[C@H](O)CC[C@]4(C)[C@H]3CC[C@]12C [TCDCA_Bile Acids] | 0.03368 | 0.1437 | 0.1773 | – | – | – | – | –
3 | NCC(=O)O [Gly_Aminoacids] | 70.99 | 335.3 | 406.3 | – | – | – | – | –
4 | CC(=O)O[C@H](CC(=O)[O-])C[N+](C)(C)C [C2_Acylcarnitines] | 0.6539 | 5.944 | 6.598 | – | – | – | – | –
5 | NCCC[C@H](N)C(=O)O [Orn_Aminoacids Related] | – | – | – | −0.7467 | 105.9 | 105.1 | – | –
6 | CCCCCCCCCCCCC/C=C/[C@@H](O)[C@H](CO)NC(=O)CCCCCCCCCCCCCCCCCCCCC [Cer(d18:1/22:0)_Ceramides] | – | – | – | −0.02982 | 1.234 | 1.204 | – | –
7 | C[N+](C)(C)C[C@H](O)CC(=O)[O-] [CO_Acylcarnitines] | – | – | – | 0.159 | 46.51 | 46.67 | – | –
8 | N[C@@H](CO)C(=O)O [Ser_Aminoacids] | 18.37 | 131.8 | 150.2 | – | – | – | – | –
9 | N[C@@H](Cc1ccccc1)C(=O)O [Phe_Aminoacids] | 7.766 | 78.71 | 86.47 | – | – | – | – | –
10 | CCCCCCCCCCCCCCCCCC(=O)O[C@H](CC(=O)[O-])C[N+](C)(C)C [C18_Acylcarnitines] | −0.002826 | 0.05309 | 0.05027 | – | – | – | – | –
11 | NCCCC[C@H](N)C(=O)O [Lys_Aminoacids] | 22.53 | 279.8 | 302.3 | – | – | – | – | –
12 | CCCCCCCCCCCCCCCC(=O)OC[C@@H](O)COP(=O)([O-])OCC[N+](C)(C)C [lysoPC a C16:0_Glycerophospholipids] | −6.572 | 136.1 | 129.6 | – | – | – | – | –
13 | C[C@H](CCC(=O)O)[C@H]1CC[C@H]2[C@@H]3CC[C@@H]4C[C@H](O)CC[C@]4(C)[C@H]3C[C@H](O)[C@]12C [DCA_Bile Acids] | −0.1175 | 0.4329 | 0.3154 | – | – | – | – | –
14 | O=C(O)[C@@H]1C[C@@H](O)CN1 [t4-OH-Pro_Aminoacids Related] | 5.369 | 19.52 | 24.88 | – | – | – | – | –
15 | CN=C(NC)NCCC[C@H](N)C(=O)O [SDMA_Aminoacids Related] | 0.05593 | 0.6239 | 0.6799 | – | – | – | – | –
16 | CCCCCCCCCCCCC/C=C/[C@@H](O)[C@H](CO)NC(=O)CCCCCCCCCCCCCCCCC [Cer(d18:1/18:0)_Ceramides] | – | – | – | −0.01126 | 0.2952 | 0.2839 | – | –

Row | SMILES | Difference [1] | Mean of DYT1-Dystonia [2] | Mean of Healthy Control [2] | Difference [3] | Mean of DYT1-Dystonia (human plasma metabolite level) | Mean of Healthy Control (human plasma metabolite level) | LogFC | Ratio
17 | CCCCCCCCCCCCCC(=O)O[C@H]1CC[C@@]2(C)C(=CC[C@H]3[C@@H]4CC[C@H]([C@H](C)CCCC(C)C)[C@@]4(C)CC[C@@H]32)C1 [CE(14:0)_Cholesterol Esters] | 3.979 | 9.408 | 13.39 | – | – | – | – | –
18 | CCCCCCCCCCCCC/C=C/[C@@H](O)[C@H](CO)NC(=O)CCCCCCCCCCCCCCCCCCCCCC [Cer(d18:1/23:0)_Ceramides] | 0.09777 | 1.286 | 1.384 | – | – | – | – | –
19 | CN1CC(=O)NC1=N [Creatinine_Aminoacids Related] | −5.466 | 102 | 96.53 | – | – | – | – | –
20 | O=c1[nH]cnc2nc[nH]c12 [Hypoxanthine_Nucleobases Related] | 1.351 | 3.012 | 1.661 | – | – | – | – | –
21 | Cn1cncc1C[C@H](N)C(=O)O [3-Met-His_Aminoacids Related] | 4.94 | 12.4 | 17.34 | – | – | – | – | –
22 | C[N+](C)(C)[O-] [TMAO_Amine Oxides] | −2.576 | 9.295 | 6.719 | – | – | – | – | –
23 | N[C@@H](CSSC[C@H](N)C(=O)O)C(=O)O [Cystine_Aminoacids Related] | −110.2 | 246.2 | 135.9 | – | – | – | 0.8573 | 1.812
24 | O=C(O)CCc1c[nH]c2ccccc12 [3-IPA_Indoles Derivatives] | 0.1708 | 0.3176 | 0.4884 | – | – | – | – | –
25 | N[C@@H](CS)C(=O)O [Cys_Aminoacids] | −30.77 | 133.6 | 102.9 | – | – | – | 0.3767 | –
26 | C[C@H](CCC(=O)NCC(=O)O)[C@H]1CC[C@H]2[C@@H]3[C@@H](O)C[C@@H]4C[C@H](O)CC[C@]4(C)[C@H]3CC[C@]12C [GUDCA_Bile Acids] | – | – | – | 0.005686 | 0.07218 | 0.07787 | – | –
27 | CCCCCCCCCCCCCCCCCCCCCCCCCC(=O)OC[C@@H](O)COP(=O)([O-])OCC[N+](C)(C)C [lysoPC a C26:0_Glycerophospholipids] | 0.1174 | 0.734 | 0.8514 | – | – | – | −0.2141 | 0.8621
28 | NC(CCCC(=O)O)C(=O)O (stereo not drawn) [alpha-AAA_Aminoacids Related] | 0.5321 | 1.201 | 1.734 | – | – | – | – | –
29 | C[N+]1(C)CCC[C@H]1C(=O)[O-] [ProBetaine_Aminoacids Related] | −10.95 | 22.35 | 11.4 | – | – | – | – | –
30 | C[C@H](CCC(=O)NCC(=O)O)[C@H]1CC[C@H]2[C@@H]3[C@H](O)C[C@@H]4C[C@H](O)CC[C@]4(C)[C@H]3C[C@H](O)[C@]12C [GCA_Bile Acids] | −0.04737 | 0.1578 | 0.1104 | – | – | – | – | –
31 | NCCCCN [Putrescine_Biogenic Amines] | – | – | – | −0.006234 | 0.1204 | 0.1141 | – | –

Some values come without a unit; they compare only within their column.
